Results published in PMC8406779.
No constants are given. Whether binding was seen depends on the method and setting. Binding seen in cells or lysates may run through a third protein. A result given as binding can be weak or reduced; the word gives no strength.

Target: T1, dmCyclin T (D. melanogaster (endogenous in adult flies)) (UniProt O96433)
T1 sequence: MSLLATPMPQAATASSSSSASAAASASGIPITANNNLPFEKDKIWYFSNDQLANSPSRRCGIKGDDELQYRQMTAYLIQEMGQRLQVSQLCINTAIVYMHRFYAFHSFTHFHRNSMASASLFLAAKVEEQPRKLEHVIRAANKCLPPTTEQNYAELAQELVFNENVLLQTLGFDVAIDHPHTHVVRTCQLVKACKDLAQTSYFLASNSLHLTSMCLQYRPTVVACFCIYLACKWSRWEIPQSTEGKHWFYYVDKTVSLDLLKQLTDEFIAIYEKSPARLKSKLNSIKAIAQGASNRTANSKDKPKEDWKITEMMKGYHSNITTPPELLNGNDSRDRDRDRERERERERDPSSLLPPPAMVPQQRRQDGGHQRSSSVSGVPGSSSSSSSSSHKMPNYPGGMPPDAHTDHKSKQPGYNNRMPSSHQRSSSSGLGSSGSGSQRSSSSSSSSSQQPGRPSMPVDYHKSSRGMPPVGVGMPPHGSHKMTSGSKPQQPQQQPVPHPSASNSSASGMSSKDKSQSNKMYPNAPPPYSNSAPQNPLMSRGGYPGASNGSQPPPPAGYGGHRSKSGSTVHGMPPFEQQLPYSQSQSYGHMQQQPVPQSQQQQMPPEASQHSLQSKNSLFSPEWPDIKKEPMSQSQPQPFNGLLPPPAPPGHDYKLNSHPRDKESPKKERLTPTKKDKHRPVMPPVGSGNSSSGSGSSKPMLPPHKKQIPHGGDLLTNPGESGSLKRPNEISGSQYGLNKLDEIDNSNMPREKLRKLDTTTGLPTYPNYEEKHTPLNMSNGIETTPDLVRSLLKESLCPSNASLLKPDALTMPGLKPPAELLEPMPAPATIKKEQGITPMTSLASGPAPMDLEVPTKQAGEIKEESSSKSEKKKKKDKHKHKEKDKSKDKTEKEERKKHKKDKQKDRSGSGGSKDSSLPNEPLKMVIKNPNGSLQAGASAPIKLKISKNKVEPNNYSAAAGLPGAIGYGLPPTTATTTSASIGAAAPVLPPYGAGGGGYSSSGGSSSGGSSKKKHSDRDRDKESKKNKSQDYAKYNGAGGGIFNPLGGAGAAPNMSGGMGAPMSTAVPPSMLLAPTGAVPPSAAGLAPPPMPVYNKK
Experiment: co-IP; antibodies against dmHEXIM or dmCyclin T crosslinked to G/A sepharose magnetic beads; 750 ug protein extract from 60 adult flies, overnight at 4 °C; bound fraction analysed by western blot with dmHEXIM and dmLARP7 antibodies

binding	Substance
binds	dmHEXIM
binds	dmLARP7
